Publication PMC12376675
No constants are given. Whether binding was seen depends on the method and setting. In cells and extracts the contact can be indirect. Some entries that bind do so weakly or less than the wild type.

Chains of the proteins cited; added tags and fusions are not shown.
UniProt P84022: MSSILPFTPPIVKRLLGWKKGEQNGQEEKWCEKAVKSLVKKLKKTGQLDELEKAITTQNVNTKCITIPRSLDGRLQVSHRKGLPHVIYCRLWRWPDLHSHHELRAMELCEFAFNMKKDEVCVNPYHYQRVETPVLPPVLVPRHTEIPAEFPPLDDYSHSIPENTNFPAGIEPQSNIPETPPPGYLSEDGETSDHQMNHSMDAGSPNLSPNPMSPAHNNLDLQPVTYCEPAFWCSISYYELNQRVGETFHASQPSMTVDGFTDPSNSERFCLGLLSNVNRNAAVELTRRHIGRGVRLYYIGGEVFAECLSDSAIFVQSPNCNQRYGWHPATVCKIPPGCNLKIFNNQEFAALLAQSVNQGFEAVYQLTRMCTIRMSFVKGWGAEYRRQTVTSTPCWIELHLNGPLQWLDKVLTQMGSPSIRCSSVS

Tests used:
[1] = target: Flag-tagged NFIB (UniProt O00712); test: co-IP; Flag-tagged BCL6, SMAD3 or NFIB overexpressed individually in C42B-ABi cells; immunoprecipitation with a Flag antibody; BCL6, SMAD3 and NFIB detected by Western blot; IgG as negative control
[2] = target: Flag-tagged SMAD3 (UniProt P84022); test: as above

| binding [1] | binding [2] | Substance |
| --- | --- | --- |
| binds | – | SMAD3 (from UniProt P84022 1-425) |
| – | binds | NFIB (from UniProt O00712 1-420) |
